# Screen size: about 2,300 compounds; about 1,400 (61%) were called active. The set was probably picked from earlier hits. Inconclusive means that the source gave no clear call. Such entries were picked first, then a sample of the others. Calls follow the shape of the dose curve; as a rule, active = well fitted inhibition curve with a large enough effect; inconclusive = small, poorly fitted or top-dose-only effect, or effect the other way; inactive = no such curve, though single readings can be large or run the other way. Where the call is inconclusive, the potency comes from a doubtful curve fit.
# Assay: Confirmation screen for delayed death inhibitors of the malarial parasite plastid, 96 hour incubation; also: nearly all actives have a fitted effect of over 60% in size
# Conditions: P. falciparum luciferase growth in erythrocytes; series mostly up to 28.7 µM; activity change, negative = inhibition: at the top concentration
# Description: The goal of this screen is to discover new antimalarial compounds that act by inhibiting the development of the apicoplast in the malarial parasite Plasmodium falciparum. The biochemical processes that make this organelle essential for erythrocytic stage parasites are not well understood. However, antibiotics, such as azithromycin and tetracycline, which target the apicoplast translational machinery, have a potent antimalarial effect. […] We have developed a cell-based assay that measures parasite growth based on the expression of an integrated copy of a firefly luciferase reporter. To detect small molecules that cause this "delayed death phenotype, erythrocytes infected with the luciferase-expressing parasites were incubated with compounds for either one or two generations, corresponding to 48 and 96 hours, respectively. Compounds that inhibit parasite growth in the second generation, but not the first, should be enriched in antimalarials that target the apicoplast. Growth inhibition is detected by a decrease in luciferase activity. MLPCN Grant: R21 NS059500 Assay Provider: David Fidock and Eric Ekland, Columbia University Keywords: NIH Roadmap, MLPCN, MLI, MLSMR, qHTS, NCGC, qHTS, malaria, luciferase, viability
# Four microliters of culture medium (RPMI 1640 with 0.5% w/v Albumax (GIBCO), 24 mM sodium bicarbonate and 10 ug/mL gentamycin) were dispensed by a Multi-drop Combi into white solid 1536-well plates (Grenier) and 23 nL compound was added by a pin tool. Four microliters of infected erythrocytes (2% hematocrit, 0.1% parasitemia final concentration) in culture medium were dispensed and the plates incubated for 96 hours at 37 C in 5% CO2. Two microliters of luciferase detection reagent was added and luminescence was detected by a ViewLux (PerkinElmer) reader
# % is scaled to controls: 0 for no effect and ±100 for the full control effect; potency is read from the fitted curve at half-maximal effect.
SMILES,Potency,"activity change, negative = inhibition"
CC(=O)NCCC(=O)Nc1cc(S(=O)(=O)N2CCOCC2)ccc1Oc1ccccc1,active: 10 µM,
Cc1c(CC(=O)N2C[C@H]3C[C@@H](C2)c2cccc(=O)n2C3)c(=O)oc2cc3occ(C(C)(C)C)c3cc12,active: 12.6 µM,
Cc1[nH]c(C)c(S(=O)(=O)N2CCN(c3cccc(C(F)(F)F)c3)CC2)c1C(=O)N1CCCCC1,"inconclusive: 11.2 µM [inhibitor, partial curve]",
CCOC(=O)Cc1csc(N/N=C/c2cccc([N+](=O)[O-])c2)n1,"inconclusive: 0.891 µM [activator, full curve]",
Cc1ccccc1Nc1nc(N)nc(COC(=O)c2cccn2C)n1,"inconclusive: 1.41 µM [activator, partial curve]",
CCOC(=O)c1sc(NC(=O)CSc2ncccn2)nc1C,"inconclusive: 14.1 µM [inhibitor, single point]",
Cc1ccc(NC(=O)c2ccc3c(SCC(=O)O)c4c(nc3c2)CCCC4)c(Br)c1,active: 7.94 µM,
CCOC(=O)N1CCC(NC(=O)C2CCN(S(=O)(=O)c3cccc4cccnc34)CC2)CC1,"inconclusive: 15.8 µM [inhibitor, partial curve]",
O=C(CCN1CCN(c2ccc(F)cc2)CC1)Nc1ccccc1F,"inconclusive: 2.51 µM [inhibitor, full curve, poor fit]",
COc1ccc2[nH]c(C(=O)NCc3ccccc3)c(C)c2c1,"inconclusive: 0.562 µM [inhibitor, full curve, poor fit]",
Cc1oc(=O)c(NC(=O)c2ccc(Cl)cc2)cc1C(=O)c1ccccc1,,inactive: -6.13%
O=C(/C=C/c1cccc(F)c1)c1ccc(N2CCOCC2)cc1,"inconclusive: 12.6 µM [inhibitor, single point]",
COc1cc(/C=C/C(=O)NC(=O)c2ccccc2O)ccc1OC(C)=O,active: 8.91 µM,
COc1ccc(CNC(=O)Nc2ccc(C)cc2)cc1,"inconclusive: 4.47 µM [activator, partial curve]",
Cc1ccc(-n2cc(CCCCCCCCC(=O)O)nn2)cc1,"inconclusive: 12.6 µM [inhibitor, partial curve, poor fit]",
O=S(=O)(c1ccccc1)c1cccc(S(=O)(=O)N2CCCCC2)c1,"inconclusive: 15.8 µM [inhibitor, single point]",
Cc1ccc(S(=O)(=O)N(C)C)cc1NC(=O)c1cncc(Br)c1,"inconclusive: 7.94 µM [inhibitor, full curve, poor fit]",
COc1ccccc1NC(=O)c1nc(S(=O)(=O)Cc2ccccc2)ncc1Cl,"inconclusive: 11.2 µM [inhibitor, partial curve, poor fit]",
COc1ccc(N2C(=O)C3C(C2=O)C(C(=O)c2ccc(Cl)cc2)N2CCCC32)cc1 (configuration not stated),,inactive: -33.2%
COc1ccc(-n2c(=O)/c(=C\c3cccs3)s/c2=C(/C#N)C(=O)N2CCN(C)CC2)cc1,,inactive: -6.92%
Cc1cccc(C)c1NC(=O)C(=O)c1cn(C)c2ccccc12,active: 15.8 µM,
Cc1nc2scc(C)n2c(=O)c1S(=O)(=O)NCc1ccccc1Cl,"inconclusive: 12.6 µM [inhibitor, single point]",
CCN(Cc1ccncc1)C(=O)c1cc(COc2ccc(C)c(C)c2)on1,"inconclusive: 15.8 µM [inhibitor, partial curve, poor fit]",

SMILES,Potency,"activity change, negative = inhibition"
COc1ccc(C(=O)NC(=S)N(C)C2CCCCC2)cc1,"inconclusive: 0.0562 µM [inhibitor, full curve, poor fit]",
Nc1ccc(C(=O)OCc2nc3c(ccc4ccccc43)[nH]2)cc1,"inconclusive: 11.2 µM [activator, partial curve]",
Cc1ccc(C)c(-n2nnnc2Sc2nnnn2-c2ccccc2)c1,active: 10 µM,
CC(NC(=O)Nc1ccc(Cl)cc1)c1ccc2c(c1)OCO2 (configuration not stated),"inconclusive: 0.501 µM [inhibitor, full curve, poor fit]",
CCCCn1c(=O)[nH]c(=O)c2c1nc(Cn1ncc(Cl)c(Cl)c1=O)n2CCC,active: 10 µM,
S=c1[nH]nc(-c2ccccn2)n1/N=C/c1ccc(-c2ccccc2Br)o1,,inactive: -12.3%
Cc1[nH]c(C)c(S(=O)(=O)N2CCN(c3cccc(Cl)c3)CC2)c1C(=O)N1CCCCC1,"inconclusive: 11.2 µM [inhibitor, partial curve, poor fit]",
CC(C)C(=O)Nc1cccc(C(=O)Nc2ccc(S(=O)(=O)N3CCOCC3)cc2)c1,"inconclusive: 12.6 µM [inhibitor, partial curve, poor fit]",
O=C(CN1CCOCC1)NNc1c2ccccc2nc2ccccc12,active: 12.6 µM,
OCCNC(=S)Nc1ccc(Cl)c(Cl)c1,active: 2.24 µM,
Cc1cccc(C)c1NC(=O)C1CCCN1S(=O)(=O)c1ccc2c(c1)n(C)c(=O)c(=O)n2C (configuration not stated),"inconclusive: 8.91 µM [inhibitor, partial curve]",
COc1cc(/C=C(/C(=O)c2cccs2)c2nc3ccccc3[nH]2)ccc1O,active: 3.98 µM,
CC(=O)Nc1cc[n+](CC(=O)c2cccc([N+](=O)[O-])c2)cc1,"inconclusive: 12.6 µM [inhibitor, partial curve, poor fit]",
Cc1ccc(NC(=O)CCc2c[nH]c3ccccc23)nc1,"inconclusive: 6.31 µM [inhibitor, single point]",
COc1ccc(CCNC(=O)C(=O)NCC2OCCN2S(=O)(=O)c2ccc3c(c2)OCCO3)cc1OC (configuration not stated),active: 11.2 µM,
CCCc1cc(NCCCN2CCOCC2)n2c(nc3ccccc32)c1C#N,"inconclusive: 0.316 µM [inhibitor, full curve, poor fit]",
COc1cccc(CN(C)Cc2cc(=O)oc3c(C)c(C)ccc23)c1,"inconclusive: 14.1 µM [inhibitor, single point]",
Cc1ccc(C(=O)Cn2nnc3ccccc32)cc1[N+](=O)[O-],"inconclusive: 8.91 µM [activator, partial curve]",
O=C(O)c1nn(CCSc2ccccc2F)c(=O)c2ccccc12,,inactive: 15.7%
COC(=O)C1C(=O)C2=C(CC1C)NC(C)=C(C(=O)OCCOc1ccccc1)C2c1ccc(C)o1 (configuration not stated),"inconclusive: 15.8 µM [inhibitor, single point]",
O=C(Cn1c(=O)sc2ccccc21)Nc1nc2c(s1)CCCC2,,inactive: 19.7%
Cc1ccc(S(=O)(=O)N2CCN(CC(=O)N/N=C/c3ccco3)CC2)cc1,"inconclusive: 10 µM [inhibitor, partial curve]",
CC(Sc1nnc(-c2ccccc2)c(-c2ccccc2)n1)C(=O)N1CCc2ccccc21 (configuration not stated),"inconclusive: 14.1 µM [inhibitor, partial curve, poor fit]",

# Part of the list above, as tab-separated lines:
SMILES	Potency	activity change, negative = inhibition
Cc1[nH]c(C)c(S(=O)(=O)N2CCN(c3cccc(C(F)(F)F)c3)CC2)c1C(=O)N1CCCCC1	inconclusive: 11.2 µM [inhibitor, partial curve]	
CCOC(=O)c1sc(NC(=O)CSc2ncccn2)nc1C	inconclusive: 14.1 µM [inhibitor, single point]	
O=C(CCN1CCN(c2ccc(F)cc2)CC1)Nc1ccccc1F	inconclusive: 2.51 µM [inhibitor, full curve, poor fit]	
CC(=O)Nc1cc[n+](CC(=O)c2cccc([N+](=O)[O-])c2)cc1	inconclusive: 12.6 µM [inhibitor, partial curve, poor fit]	
COc1cccc(CN(C)Cc2cc(=O)oc3c(C)c(C)ccc23)c1	inconclusive: 14.1 µM [inhibitor, single point]	

# Next compounds follow.

SMILES,Potency,"activity change, negative = inhibition"
Cc1cccc(NC(=O)Cc2coc3ccc4ccccc4c23)n1,"inconclusive: 14.1 µM [inhibitor, single point]",
Cc1nn(C(C)C(=O)NCCC2=CCCCC2)c(=O)c2nn(-c3ccccc3)c(C)c12 (configuration not stated),active: 11.2 µM,
Cc1c(-c2cccc(Cl)c2)nc2ccccc2c1C(=O)NC1CC1,"inconclusive: 17.8 µM [inhibitor, partial curve, poor fit]",
C#CCn1c(S(=O)(=O)Cc2ccc(C)cc2)nc(-c2ccccc2)c1-c1ccccc1,active: 12.6 µM,
CCSc1nnc(N2C(=O)c3ccc(C(=O)c4ccc(C(=O)O)cc4)cc3C2=O)s1,"inconclusive: 14.1 µM [inhibitor, partial curve]",
S=C(Nc1ccccc1Cl)N(Cc1ccccc1)Cc1cccnc1,active: 11.2 µM,
Cc1ccccc1OCC(=O)NCCC1=CCCCC1,,inactive: -19.1%
Cc1cccc(NC(=O)CSc2nc3ccccc3nc2N2CCCCC2)c1,"inconclusive: 12.6 µM [inhibitor, partial curve, poor fit]",
O=C(Nc1ccsc1C(=O)O)c1cccc(Oc2ccccc2)c1,"inconclusive: 6.31 µM [activator, partial curve]",
COC(=O)c1c(-c2ccc(OC)cc2)sc2ccc(N3CCOCC3)cc12,"inconclusive: 12.6 µM [inhibitor, partial curve, poor fit]",
CC1=CC(=O)O[C@@H]1[C@@]1(C)C[C@H]2OC(=O)C[C@H]3[C@@H](C)C(=O)C(O)=C1[C@@]23CO,"inconclusive: 0.0562 µM [activator, full curve, poor fit]",
COc1ccccc1NC(=O)c1ccc2nc(-c3ccccc3)c(-c3ccccc3)nc2c1,,inactive: 2.71%
Cc1cccc(NC(=O)CN(C)S(=O)(=O)c2ccc3c(c2)n(C)c(=O)c(=O)n3C)c1C,"inconclusive: 10 µM [inhibitor, partial curve]",
Cc1cc(C)c(N=C2SCC(=O)N2Cc2ccco2)c(C)c1,"inconclusive: 14.1 µM [inhibitor, single point]",
CC(C)CN1C2CCCC1CC(NC(=S)NCc1ccco1)C2 (configuration not stated),active: 10 µM,
COC(=O)COc1ccc(S(=O)(=O)NCCC2=CCCCC2)cc1Cl,,inactive: -17.4%
COc1ccccc1-n1c(SCC(=O)Nc2cc(C)on2)nc2c([nH]c3ccccc32)c1=O,"inconclusive: 7.94 µM [inhibitor, full curve, poor fit]",
Cc1ccccc1-c1nc(CS(=O)CC(=O)NC(C)CCc2ccccc2)c(C)o1 (configuration not stated),"inconclusive: 15.8 µM [inhibitor, single point]",
COc1ccccc1-n1nnnc1S(=O)(=O)Cc1ccc(Cl)cc1,active: 7.08 µM,
CN(C)S(=O)(=O)c1ccc(NCC2COc3ccccc3O2)c([N+](=O)[O-])c1 (configuration not stated),active: 12.6 µM,
S=c1[nH]nc(-c2ccco2)n1/N=C/C(Cl)=C/c1ccccc1,"inconclusive: 20 µM [inhibitor, single point]",

# From PubChem BioAssay AID504848 (National Center for Advancing Translational Sciences (NCATS), 2011)
